# The supplement of paper PMC11732987, “Enantioselective OTUD7B fragment discovery through chemoproteomics screening and high-throughput optimisation” (Communications Chemistry, 2025)
# Amino acid sequences for entries named in this document (tags omitted). A change or cut given only in a name is not applied to a line headed by its entry. Residues count along the entry.
# UniProt Q92990, 533-556: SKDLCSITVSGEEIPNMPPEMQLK
# UniProt P49840, 372-391: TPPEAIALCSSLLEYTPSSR
# UniProt P49915: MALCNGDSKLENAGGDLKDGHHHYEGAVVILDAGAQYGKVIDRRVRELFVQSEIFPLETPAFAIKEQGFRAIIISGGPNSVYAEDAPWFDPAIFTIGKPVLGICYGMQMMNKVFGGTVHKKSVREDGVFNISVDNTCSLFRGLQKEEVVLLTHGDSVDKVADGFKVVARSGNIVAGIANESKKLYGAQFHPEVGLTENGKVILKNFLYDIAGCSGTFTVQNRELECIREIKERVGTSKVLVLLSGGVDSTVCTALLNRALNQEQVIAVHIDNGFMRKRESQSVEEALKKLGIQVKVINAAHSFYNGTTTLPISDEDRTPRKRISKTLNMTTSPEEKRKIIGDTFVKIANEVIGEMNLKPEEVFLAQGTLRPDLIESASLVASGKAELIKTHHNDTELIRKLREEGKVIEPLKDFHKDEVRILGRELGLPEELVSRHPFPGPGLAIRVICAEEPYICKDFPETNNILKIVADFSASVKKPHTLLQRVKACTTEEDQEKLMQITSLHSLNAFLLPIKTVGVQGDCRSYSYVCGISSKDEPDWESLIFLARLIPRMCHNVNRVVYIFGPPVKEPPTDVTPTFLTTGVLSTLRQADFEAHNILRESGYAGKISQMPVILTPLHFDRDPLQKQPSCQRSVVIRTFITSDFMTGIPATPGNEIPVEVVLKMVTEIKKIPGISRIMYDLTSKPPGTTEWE
# UniProt Q9P2T1: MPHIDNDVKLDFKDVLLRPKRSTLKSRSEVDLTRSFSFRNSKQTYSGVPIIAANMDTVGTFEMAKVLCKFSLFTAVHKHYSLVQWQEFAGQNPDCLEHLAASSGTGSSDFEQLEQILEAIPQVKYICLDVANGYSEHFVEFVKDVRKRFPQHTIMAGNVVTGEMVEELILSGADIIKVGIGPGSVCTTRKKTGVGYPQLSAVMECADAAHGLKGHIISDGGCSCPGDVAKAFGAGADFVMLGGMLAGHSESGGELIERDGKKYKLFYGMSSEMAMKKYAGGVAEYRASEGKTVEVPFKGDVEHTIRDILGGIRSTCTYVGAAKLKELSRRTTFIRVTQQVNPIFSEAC
# UniProt P00367, 364-386: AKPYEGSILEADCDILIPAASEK
# UniProt Q92616, whole entry, looked up: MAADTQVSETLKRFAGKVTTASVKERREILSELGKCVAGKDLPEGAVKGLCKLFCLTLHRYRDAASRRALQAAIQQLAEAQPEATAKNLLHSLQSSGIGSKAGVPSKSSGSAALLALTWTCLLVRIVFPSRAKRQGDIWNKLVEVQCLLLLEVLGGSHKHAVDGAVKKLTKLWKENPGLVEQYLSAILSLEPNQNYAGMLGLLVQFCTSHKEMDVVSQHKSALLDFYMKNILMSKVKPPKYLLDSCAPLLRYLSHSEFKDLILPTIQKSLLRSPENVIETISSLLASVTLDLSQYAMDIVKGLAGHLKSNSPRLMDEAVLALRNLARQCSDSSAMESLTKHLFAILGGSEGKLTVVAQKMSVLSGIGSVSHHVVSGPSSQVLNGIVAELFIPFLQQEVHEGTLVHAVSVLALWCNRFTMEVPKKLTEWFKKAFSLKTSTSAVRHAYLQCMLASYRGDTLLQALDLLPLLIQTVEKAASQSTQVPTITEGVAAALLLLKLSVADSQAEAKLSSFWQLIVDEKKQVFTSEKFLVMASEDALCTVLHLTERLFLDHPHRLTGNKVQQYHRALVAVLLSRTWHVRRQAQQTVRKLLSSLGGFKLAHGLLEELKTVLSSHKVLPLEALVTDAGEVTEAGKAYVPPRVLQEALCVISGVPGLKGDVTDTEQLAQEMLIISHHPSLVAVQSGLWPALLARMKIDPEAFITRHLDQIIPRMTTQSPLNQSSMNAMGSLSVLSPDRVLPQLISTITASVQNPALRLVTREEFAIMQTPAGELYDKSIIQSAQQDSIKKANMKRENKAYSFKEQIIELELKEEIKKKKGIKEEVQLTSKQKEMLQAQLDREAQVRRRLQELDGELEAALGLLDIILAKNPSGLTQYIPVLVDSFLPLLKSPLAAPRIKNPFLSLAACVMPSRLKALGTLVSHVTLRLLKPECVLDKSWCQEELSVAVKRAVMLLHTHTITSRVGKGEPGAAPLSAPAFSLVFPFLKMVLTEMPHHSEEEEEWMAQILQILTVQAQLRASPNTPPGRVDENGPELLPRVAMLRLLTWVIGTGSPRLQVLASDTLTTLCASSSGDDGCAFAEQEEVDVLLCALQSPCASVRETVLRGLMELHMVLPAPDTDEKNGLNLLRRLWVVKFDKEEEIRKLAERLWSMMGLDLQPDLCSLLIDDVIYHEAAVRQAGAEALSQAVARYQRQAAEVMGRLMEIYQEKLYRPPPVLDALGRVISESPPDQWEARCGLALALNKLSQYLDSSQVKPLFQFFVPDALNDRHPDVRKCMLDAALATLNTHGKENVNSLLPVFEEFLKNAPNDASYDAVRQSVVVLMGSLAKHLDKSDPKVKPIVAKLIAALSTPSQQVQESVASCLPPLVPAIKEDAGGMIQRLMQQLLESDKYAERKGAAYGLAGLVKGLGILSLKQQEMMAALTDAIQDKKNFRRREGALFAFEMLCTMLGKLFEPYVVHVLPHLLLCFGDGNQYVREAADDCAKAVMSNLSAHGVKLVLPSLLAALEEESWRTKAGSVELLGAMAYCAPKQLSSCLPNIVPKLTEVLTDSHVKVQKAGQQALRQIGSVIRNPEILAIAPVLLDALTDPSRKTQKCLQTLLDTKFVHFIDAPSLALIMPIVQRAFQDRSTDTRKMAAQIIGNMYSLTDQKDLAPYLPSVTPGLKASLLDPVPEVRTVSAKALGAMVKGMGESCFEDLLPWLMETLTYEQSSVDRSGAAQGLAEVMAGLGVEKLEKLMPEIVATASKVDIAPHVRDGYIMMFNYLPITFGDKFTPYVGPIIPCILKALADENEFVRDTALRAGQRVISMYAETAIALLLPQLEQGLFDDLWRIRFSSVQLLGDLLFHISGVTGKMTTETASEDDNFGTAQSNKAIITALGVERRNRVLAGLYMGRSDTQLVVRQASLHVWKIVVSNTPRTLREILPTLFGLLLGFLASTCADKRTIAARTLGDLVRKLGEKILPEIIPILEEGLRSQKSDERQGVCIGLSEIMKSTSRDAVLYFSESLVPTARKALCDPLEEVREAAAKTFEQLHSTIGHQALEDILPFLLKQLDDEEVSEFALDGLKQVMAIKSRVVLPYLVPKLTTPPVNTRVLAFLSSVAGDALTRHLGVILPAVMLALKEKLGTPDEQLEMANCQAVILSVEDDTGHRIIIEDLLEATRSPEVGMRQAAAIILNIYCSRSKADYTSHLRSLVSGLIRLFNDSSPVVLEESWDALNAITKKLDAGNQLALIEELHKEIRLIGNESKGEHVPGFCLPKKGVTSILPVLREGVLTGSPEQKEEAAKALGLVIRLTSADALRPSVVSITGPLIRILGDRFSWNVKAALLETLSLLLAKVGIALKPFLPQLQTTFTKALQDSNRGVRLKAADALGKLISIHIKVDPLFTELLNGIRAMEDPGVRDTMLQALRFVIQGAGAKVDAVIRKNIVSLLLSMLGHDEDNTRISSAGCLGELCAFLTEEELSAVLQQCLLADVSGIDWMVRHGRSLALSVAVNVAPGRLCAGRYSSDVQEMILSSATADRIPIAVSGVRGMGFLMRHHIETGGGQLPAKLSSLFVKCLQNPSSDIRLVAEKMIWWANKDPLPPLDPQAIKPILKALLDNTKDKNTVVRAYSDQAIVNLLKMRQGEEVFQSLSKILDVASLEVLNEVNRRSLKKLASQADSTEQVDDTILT
# UniProt Q17RS7: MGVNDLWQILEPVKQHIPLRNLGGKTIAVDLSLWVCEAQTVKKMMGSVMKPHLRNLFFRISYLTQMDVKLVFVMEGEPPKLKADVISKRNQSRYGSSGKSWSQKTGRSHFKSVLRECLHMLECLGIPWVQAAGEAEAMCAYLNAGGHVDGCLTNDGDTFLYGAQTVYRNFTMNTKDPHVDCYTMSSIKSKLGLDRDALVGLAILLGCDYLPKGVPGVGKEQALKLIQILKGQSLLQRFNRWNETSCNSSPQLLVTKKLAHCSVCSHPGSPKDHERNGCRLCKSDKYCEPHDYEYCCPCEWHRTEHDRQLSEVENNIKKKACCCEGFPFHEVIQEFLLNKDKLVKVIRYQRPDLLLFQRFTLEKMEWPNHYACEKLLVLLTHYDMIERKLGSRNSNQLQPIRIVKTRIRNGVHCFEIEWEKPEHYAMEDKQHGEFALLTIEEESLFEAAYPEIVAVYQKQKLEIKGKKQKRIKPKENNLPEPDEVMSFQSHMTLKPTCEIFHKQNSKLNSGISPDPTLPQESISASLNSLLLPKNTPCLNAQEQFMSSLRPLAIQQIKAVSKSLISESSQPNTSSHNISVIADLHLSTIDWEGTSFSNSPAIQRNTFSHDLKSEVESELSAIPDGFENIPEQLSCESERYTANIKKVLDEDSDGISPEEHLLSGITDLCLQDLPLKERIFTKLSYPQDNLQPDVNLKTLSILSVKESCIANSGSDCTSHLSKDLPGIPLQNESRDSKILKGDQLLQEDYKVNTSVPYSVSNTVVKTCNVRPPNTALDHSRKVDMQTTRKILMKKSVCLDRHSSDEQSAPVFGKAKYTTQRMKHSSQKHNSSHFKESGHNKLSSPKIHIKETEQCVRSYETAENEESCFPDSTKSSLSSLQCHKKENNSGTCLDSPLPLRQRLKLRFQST
# UniProt Q92538: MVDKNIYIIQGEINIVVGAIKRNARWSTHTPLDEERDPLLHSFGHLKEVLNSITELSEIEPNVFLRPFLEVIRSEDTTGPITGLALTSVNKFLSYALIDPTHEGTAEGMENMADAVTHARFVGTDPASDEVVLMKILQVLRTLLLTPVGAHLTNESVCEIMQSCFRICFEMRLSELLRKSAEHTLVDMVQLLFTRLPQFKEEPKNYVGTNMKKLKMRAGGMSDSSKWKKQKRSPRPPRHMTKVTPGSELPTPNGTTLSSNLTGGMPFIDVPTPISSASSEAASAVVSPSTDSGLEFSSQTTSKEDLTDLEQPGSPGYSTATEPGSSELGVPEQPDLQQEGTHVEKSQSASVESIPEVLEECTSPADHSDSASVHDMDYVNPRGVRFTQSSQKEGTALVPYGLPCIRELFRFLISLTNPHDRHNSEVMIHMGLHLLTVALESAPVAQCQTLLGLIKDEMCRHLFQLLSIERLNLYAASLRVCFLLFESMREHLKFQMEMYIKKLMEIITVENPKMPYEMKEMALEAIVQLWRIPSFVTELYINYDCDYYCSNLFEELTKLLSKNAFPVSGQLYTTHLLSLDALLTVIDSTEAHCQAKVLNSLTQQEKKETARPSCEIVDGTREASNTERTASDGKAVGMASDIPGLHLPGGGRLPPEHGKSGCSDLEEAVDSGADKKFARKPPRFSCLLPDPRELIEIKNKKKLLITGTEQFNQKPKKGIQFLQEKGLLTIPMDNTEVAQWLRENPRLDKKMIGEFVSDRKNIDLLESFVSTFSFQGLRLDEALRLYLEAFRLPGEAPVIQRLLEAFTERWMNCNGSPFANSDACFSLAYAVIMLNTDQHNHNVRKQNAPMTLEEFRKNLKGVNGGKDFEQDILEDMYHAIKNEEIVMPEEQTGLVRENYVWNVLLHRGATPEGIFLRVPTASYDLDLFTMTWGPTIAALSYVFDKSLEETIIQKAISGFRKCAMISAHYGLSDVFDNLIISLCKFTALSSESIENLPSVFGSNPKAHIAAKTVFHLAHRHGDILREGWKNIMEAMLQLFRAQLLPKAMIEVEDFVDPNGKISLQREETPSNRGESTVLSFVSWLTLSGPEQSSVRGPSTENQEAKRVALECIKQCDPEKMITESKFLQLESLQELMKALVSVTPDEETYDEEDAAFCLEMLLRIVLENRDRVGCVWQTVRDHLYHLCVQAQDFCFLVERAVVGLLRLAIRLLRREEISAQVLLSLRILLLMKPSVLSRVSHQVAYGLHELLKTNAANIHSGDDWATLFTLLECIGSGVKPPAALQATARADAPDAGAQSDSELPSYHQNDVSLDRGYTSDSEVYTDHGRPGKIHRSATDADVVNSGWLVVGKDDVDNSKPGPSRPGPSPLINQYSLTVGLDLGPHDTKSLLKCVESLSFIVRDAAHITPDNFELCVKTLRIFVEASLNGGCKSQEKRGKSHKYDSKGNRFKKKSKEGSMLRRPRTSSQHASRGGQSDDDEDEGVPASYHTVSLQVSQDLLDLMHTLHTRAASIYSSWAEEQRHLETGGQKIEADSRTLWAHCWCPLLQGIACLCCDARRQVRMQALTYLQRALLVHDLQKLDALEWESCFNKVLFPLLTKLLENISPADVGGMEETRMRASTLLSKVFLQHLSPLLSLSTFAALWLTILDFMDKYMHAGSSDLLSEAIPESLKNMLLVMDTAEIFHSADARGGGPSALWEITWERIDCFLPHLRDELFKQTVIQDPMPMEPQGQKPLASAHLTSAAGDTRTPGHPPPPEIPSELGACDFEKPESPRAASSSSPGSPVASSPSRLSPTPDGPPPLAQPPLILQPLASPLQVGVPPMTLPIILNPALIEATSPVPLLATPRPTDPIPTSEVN
# UniProt Q9NQX3, 411-434: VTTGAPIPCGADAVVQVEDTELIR
# UniProt Q9UKJ3, 383-403: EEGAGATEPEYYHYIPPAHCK
# The list shows a part of the results. The data scatter; read single values as rough.
# How the values were obtained:
# [1] = compound: ClCC(=O)N[C@@H]1CCCc2ccccc12; test: log2 mean competition ratio of IA-DTB cysteine labelling (DMSO/compound) (log2 ratio); higher = stronger cysteine engagement by compound; settings: treatment time: 4 h, cell line lysate: HEK293T
# Experimental: (§1)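 IA-DTB competitive cysteine chemoproteomics in HEK293T RIPA lysate. Lysates were treated with compound 29 or 30 at 50 or 200 µM for 4 h, then IA-DTB (500 µM, 1 h), trypsin-digested, NeutrAvidin-enriched and analysed by diaPASEF. Competition ratio = intensity DMSO / intensity compound (n=4 treated, n=64 DMSO); binding: mean log2 CR ≥ 1 and p ≤ 0.05 plus QC filters. Target is the cysteine site.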
# [2] = compound: ClCC(=O)N[C@H]1CCCc2ccccc12; test: as above; settings: treatment time: 4 h, cell line lysate: HEK293T
# Experimental: as §1
Target,log2 mean competition ratio ([1]; 50 µM),log2 mean competition ratio ([1]; 200 µM),log2 mean competition ratio ([2]; 50 µM),log2 mean competition ratio ([2]; 200 µM)
GCFC2 C336 (UniProt P16383),-0.0554,-0.0725,-0.236,0.0553
GPR50 C355,-0.03,-0.199,0.374,-0.137
GLMN C537 (UniProt Q92990),0.18,0.382,0.602,-0.141
GNB4 C25 (UniProt Q9HAV0),-0.0814,0.12,0.216,-0.313
GSK3A C380 (UniProt P49840),0.00656,0.569,0.0668,0.224
GNL3L C490 (UniProt Q9NVN8),0.134,0.214,0.352,0.205
GRB10 C6 (UniProt Q13322),0.0645,0.00797,-0.119,-0.197
GMPPB C245 (UniProt Q9Y5P6),-0.147,0.317,0.0158,0.352
GBA2 C30 (UniProt Q9HCG7),-0.263,-0.198,0.231,-0.293
GRK6 C138 (UniProt P43250),0.052,0.0651,0.11,0.069
GSK3B C317 (UniProt P49841),0.105,0.141,-0.106,0.101
GLMN C36 (UniProt Q92990),-0.108,0.248,-0.373,-0.0468
GHDC C502 (UniProt Q8N2G8),0.48,0.0734,0.549,0.273
GPC1 C246 (UniProt P35052),-0.295,0.21,-0.262,0.356
GNL3L C89 (UniProt Q9NVN8),0.0494,0.103,-0.18,0.026
GEMIN5 C441 (UniProt Q8TEQ6),0.0773,-0.296,0.0527,-0.196
GIT2 C122 (UniProt Q14161),-0.0887,0.0613,-0.312,0.135
GCC2 C416 (UniProt Q8IWJ2),0.434,0.11,0.248,-0.0132
GSPT2 C582 (UniProt Q8IYD1),-0.199,-0.275,0.242,-0.0729
GMPS C456 (UniProt P49915),-0.527,0.11,0.363,0.405
GMPS C523 (UniProt P49915),-0.198,0.151,-0.0725,0.273
GPAT3;GPAT4 C266;(C285),0.156,0.265,-0.431,-0.00801
GMPR2 C186 (UniProt Q9P2T1),0.113,-0.159,-0.314,-0.151
GMPR2 C348 (UniProt Q9P2T1),0.1,-0.341,0.476,-0.184

Target,log2 mean competition ratio ([1]; 50 µM),log2 mean competition ratio ([1]; 200 µM),log2 mean competition ratio ([2]; 50 µM),log2 mean competition ratio ([2]; 200 µM)
GLUD1 C376 (UniProt P00367),-0.011,0.543,-0.384,0.122
GNAI1 C66 (UniProt P63096),-0.35,0.00975,-0.543,-0.0267
GEMIN5 C793 (UniProt Q8TEQ6),-0.311,0.206,-0.227,0.209
GCC2 C399 (UniProt Q8IWJ2),0.175,-0.201,-0.245,-0.318
GCN1 C648 (UniProt Q92616),0.322,0.0263,0.0701,-0.15
GEN1 C890 (UniProt Q17RS7),-0.35,-0.012,0.765,0.274
GBF1 C403 (UniProt Q92538),0.2,0.195,0.0364,0.627
GGCX C343 (UniProt P38435),0.217,0.257,0.351,0.197
GLG1 C984 (UniProt Q92896),-0.117,0.391,0.237,0.717
GRK2 C120 (UniProt P25098),0.165,0.114,-0.275,-0.0906
GLG1 C970 (UniProt Q92896),-0.181,0.497,-0.207,0.536
GNB4 C204 (UniProt Q9HAV0),-0.178,0.0268,-0.0606,0.12
GPD1L C216 (UniProt Q8N335),0.283,0.242,0.0709,0.275
GFPT2 C247 (UniProt O94808),0.235,0.112,-0.292,-0.128
GIGYF1 C177 (UniProt O75420),0.065,0.0728,-0.183,0.0265
GRK5 C138 (UniProt P34947),0.104,-0.0763,0.4,-0.191
GBF1 C661 (UniProt Q92538),0.078,0.00579,-0.49,-0.0442
GLYR1 C303 (UniProt Q49A26),-0.00409,-0.0412,-0.0634,0.0473
GNL3 C158 (UniProt Q9BVP2),-0.022,-0.268,0.564,-0.0546
GRIPAP1 C827 (UniProt Q4V328),-0.129,-0.101,0.268,0.109
GDI2 C414,-0.518,-0.165,-0.467,-0.0202
GID8 C139 (UniProt Q9NWU2),0.04,-0.0911,0.249,0.283
GINM1 C242 (UniProt Q9NU53),-0.0812,-0.171,-0.181,-0.0161
GCN1 C1984 (UniProt Q92616),0.0807,0.119,0.268,0.334

Target,log2 mean competition ratio ([1]; 50 µM),log2 mean competition ratio ([1]; 200 µM),log2 mean competition ratio ([2]; 50 µM),log2 mean competition ratio ([2]; 200 µM)
GNL3L C518 (UniProt Q9NVN8),-0.0185,0.155,0.196,0.303
GSK3A C170 (UniProt P49840),0.185,-0.388,-0.118,-0.444
GIT1 C674 (UniProt Q9Y2X7),-0.0926,0.145,-0.0578,0.114
GRB10 C321 (UniProt Q13322),-0.163,0.00858,0.109,-0.0205
GCAT C404 (UniProt O75600),-0.183,0.0337,-0.276,0.0746
GFPT1 C264 (UniProt Q06210),-0.0999,-0.12,0.0772,0.123
GPRIN3 C515,-0.00923,0.349,-0.119,0.197
GRB10 C380 (UniProt Q13322),-0.0399,0.202,-0.118,0.261
GMPS C530 (UniProt P49915),0.0507,-0.361,-0.0225,-0.084
GLI3 C870,-0.0691,0.306,-0.0475,0.139
GON4L C2092 (UniProt Q3T8J9),0.169,-0.266,-0.174,-0.355
GOLGA4 C1085 (UniProt Q13439),-0.0134,-0.222,0.247,-0.117
GK;GK3P C67;(C67),0.271,-0.515,-0.0977,-0.531
GOLGA3 C455 (UniProt Q08378),0.0629,-0.162,0.0788,-0.137
GLRX3 C229 (UniProt O76003),-0.661,0.0715,-0.355,0.199
GPATCH4 C333 (UniProt Q5T3I0),0.0397,0.106,0.15,0.155
GNAI3 C351 (UniProt P08754),-0.012,-0.0648,0.0331,0.0412
GMPR2 C316 (UniProt Q9P2T1),0.414,-0.0939,-0.0176,-0.148
GEN1 C880 (UniProt Q17RS7),-0.0616,0.0152,0.695,-0.0207
GSDME C180 (UniProt O60443),-0.253,-0.215,0.096,-0.241
GPHN C419 (UniProt Q9NQX3),-0.155,-0.0396,0.237,-0.131
GLCCI1 C151 (UniProt Q86VQ1),0.0166,0.193,-0.0761,0.246
GPC4 C341 (UniProt O75487),-0.0748,0.0206,-0.00557,0.171
GOLGB1 C1462 (UniProt Q14789),-0.219,0.21,-0.217,0.155

# Already shown: entries from further up.
Target,log2 mean competition ratio ([1]; 50 µM),log2 mean competition ratio ([1]; 200 µM),log2 mean competition ratio ([2]; 50 µM),log2 mean competition ratio ([2]; 200 µM)
GFPT1 C264 (UniProt Q06210),-0.0999,-0.12,0.0772,0.123
GPRIN3 C515,-0.00923,0.349,-0.119,0.197

# Quoted at random: 3 entries already listed, in no set order.
Target,log2 mean competition ratio ([1]; 50 µM),log2 mean competition ratio ([1]; 200 µM),log2 mean competition ratio ([2]; 50 µM),log2 mean competition ratio ([2]; 200 µM)
GOLGB1 C1462 (UniProt Q14789),-0.219,0.21,-0.217,0.155
GLI3 C870,-0.0691,0.306,-0.0475,0.139
GEN1 C880 (UniProt Q17RS7),-0.0616,0.0152,0.695,-0.0207

# The results go on.

Target,log2 mean competition ratio ([1]; 50 µM),log2 mean competition ratio ([1]; 200 µM),log2 mean competition ratio ([2]; 50 µM),log2 mean competition ratio ([2]; 200 µM)
GNE C183 (UniProt Q9Y223),0.29,0.0828,-0.0703,0.128
GMIP C895 (UniProt Q9P107),0.0155,-0.236,-0.112,0.0651
GEMIN2 C63 (UniProt O14893),-0.33,-0.0902,-0.0786,-0.238
GNAI1 C139 (UniProt P63096),-0.0891,-0.154,0.0449,-0.0708
GMDS C92 (UniProt O60547),-0.111,0.662,-0.517,0.351
GRID1 C811,-0.0331,0.111,-0.148,0.191
GPATCH8 C402 (UniProt Q9UKJ3),0.00389,0.183,0.328,0.228
GEMIN5 C973 (UniProt Q8TEQ6),0.0133,-0.0537,0.0278,0.0846
GOPC C408 (UniProt Q9HD26),0.543,0.219,0.767,0.313
GLO1 C61 (UniProt Q04760),0.131,-0.416,-0.0729,-0.328
GPATCH4 C152 (UniProt Q5T3I0),0.0915,0.0586,-0.0299,0.129
GCLC C501 (UniProt P48506),-0.034,0.0666,0.243,0.119
GBF1 C1414 (UniProt Q92538),-0.0163,-0.041,-0.242,-0.065
GPRC5A C284 (UniProt Q8NFJ5),0.00591,0.651,-0.189,0.312
GORASP2 C173 (UniProt Q9H8Y8),-0.201,-0.00483,0.0498,0.0509
GLG1 C269 (UniProt Q92896),-0.272,0.255,-0.337,0.0983
GRAMD1A C576 (UniProt Q96CP6),-0.0921,0.037,-0.3,0.0878
GFPT2 C226 (UniProt O94808),-0.19,-0.0609,0.493,0.156
GPATCH2 C59 (UniProt Q9NW75),-0.191,0.0331,-0.385,0.164
GLDC C250 (UniProt P23378),0.184,0.19,-0.242,0.0701
GCN1 C2255 (UniProt Q92616),0.392,-0.0331,0.103,-0.158
GLCCI1 C207 (UniProt Q86VQ1),0.25,0.275,0.0618,0.236
GNPNAT1 C179 (UniProt Q96EK6),-0.00366,-0.2,0.238,-0.125
GMPS C137 (UniProt P49915),-0.307,-0.387,-0.287,0.491
